± gives the standard deviation of the averaged measurements. The list shows a part of the results. Repeats are few or missing, and single values can be far off.
system: RAW 264.7 macrophages infected with S. aureus JE2-lux; experiment: host macrophage viability (CellTiter-Fluor) relative to DMSO vehicle; higher = more viable host cells; conditions: 10 µM; treatment time 4 h; gentamicin 50 µg/ml

Row | Structure (SMILES) | host macrophage viability [%]
1 | Cc1ccccc1/N=c1\oc2ccc([N+](=O)[O-])cc2cc1C(N)=O | 116 ± 11
2 | CCN(C(=O)Cc1ccccc1OC)c1nc2c(s1)CCc1occc1-2 | 136
3 | Cc1cc(C)n(-c2cc(N3CCN(c4ccccc4)CC3)ncn2)n1 | 86.3
4 | COC(=O)c1ccc(NC(=O)CSc2nc3sc4c(c3c(=O)[nH]2)CCCC4)cc1 | 110
5 | CC(C)C(C(=O)Nc1ccccc1)N1C(=O)c2ccccc2C1=O (configuration not stated) | 99.6
6 | Cc1ccc(C)c2[nH]c(=O)c(CCNC(=S)NCCn3ccc4ccccc43)cc12 | 106 ± 10
7 | Cc1nc(Oc2cccc(Cl)c2)c2c3c(sc2n1)CCCC3 | 124
8 | Cc1nn2c(C)c(C(=O)Nc3ccc(C(C)C)cc3)cnc2c1-c1ccccc1 | 137
9 | N#CC1=C(S)N(c2ccccc2)C(c2ccc(-c3ccccc3[N+](=O)[O-])o2)NC1=O (configuration not stated) | 125
10 | CCc1c(C)nc(N2CCN(c3cccc(OC)c3)CC2)[nH]c1=O | 139
11 | O=C(CN(Cc1ccco1)C(=O)C(=O)Nc1ccc2c(c1)OCCO2)NC1CCCC1 | 107
12 | O=C(CCSc1ccc(F)cc1)Nc1nc2c(s1)CCC2 | 116
13 | CCOc1ccc(NC(=O)c2nc3c(=O)n(Cc4ccccc4C)c4cc(C)ccc4n3n2)cc1 | 112
14 | COc1cc2nc(NC(=O)c3cc4cc([N+](=O)[O-])ccc4s3)sc2cc1OC | 103
15 | O=c1nc(SCc2cccc3ccccc23)c2c(n1CCO)CCCC2 | 100
16 | COC(=O)c1ccc(NC(=O)CCN2C(=O)CSC2=O)cc1 | 119
17 | COc1ccc(CCNc2nccn(Cc3ccc(Cl)cc3)c2=O)cc1OC | 117
18 | O=C(NC1CC(=O)N(c2ccc3c(c2)OCCO3)C1)N1CCN(c2ccccc2F)CC1 (configuration not stated) | 120
19 | CC(=O)Nc1nc(C(=O)Nc2ccc3nc(C)[nH]c3c2)cs1 | 110
20 | Fc1ccc2nc(Nc3nc(-c4cccs4)cs3)sc2c1 | 119 ± 12
21 | Cc1sc2nc(C)n(C3CCN(C(=O)c4n[nH]c5c4CCC5)CC3)c(=O)c2c1C | 116
22 | Cc1cccc(CSC2=NCCN2C(=O)c2cccs2)c1 | 100 ± 12
23 | COc1ccc2oc(=O)c(/C(N)=N/NC(=O)c3ccncc3)cc2c1 | 116 ± 6.1

Row | Structure (SMILES) | host macrophage viability [%]
24 | O=C(NCc1cccnc1)c1ncoc1-c1cccc(Cl)c1 | 93.1
25 | CSc1ccccc1NC(=O)c1cnc2n(c1=O)CCS2 | 121
26 | O=C(CSc1nc(-c2ccccc2)c2ccccc2n1)NCc1ccc2c(c1)OCO2 | 124
27 | Cn1ncc2c(NCc3ccccc3)nc(NC3CCCC3)nc21 | 109
28 | Clc1ccc(Cl)c2sc(N3CCOCC3)nc12 | 107 ± 11
29 | COc1ccccc1OCCN(C)C(=O)c1sc2ncn(C)c(=O)c2c1C | 128
30 | O=c1nc(SCc2c(F)cccc2Cl)c2c([nH]1)CCC2 | 109
31 | CCOC(=O)c1c(C)oc2c1cc(NS(=O)(=O)c1cccc3cccnc13)c1ccccc12 | 120
32 | CCc1cccc(CC)c1NC(=O)CSc1nnc(NC(=O)c2ccco2)s1 | 119
33 | C=CCOCC(O)Cn1c(N2CCN(Cc3ccccc3)CC2)nc2c1c(=O)[nH]c(=O)n2C (configuration not stated) | 109
34 | O=c1[nH]c(=O)n(C2CC(O)C(CO)O2)cc1I (configuration not stated) | 105
35 | Cc1ccc(NC(=O)Nc2c(-n3cnnc3)nn(C)c2C)cc1 | 89.8
36 | Cc1nc(CNS(=O)(=O)c2cc([N+](=O)[O-])ccc2C)cs1 | 109 ± 9.9
37 | COc1ccc([N+](=O)[O-])cc1NC(=O)c1ccccc1NS(=O)(=O)c1ccccc1 | 96.7
38 | O=C1C=C/C(=N\Oc2ccc([N+](=O)[O-])cc2[N+](=O)[O-])c2cccnc21 | 94.9
39 | COCCn1ccc2nc(C)c(C(=O)Nc3cc(OC)cc(OC)c3)cc2c1=O | 121
40 | Cc1oc2ncnc(Oc3ccccc3F)c2c1C | 131
41 | COc1ccc(C2NC(=S)NC(C)=C2C(=O)Nc2ccc(F)c(F)c2)cc1OC (configuration not stated) | 112
42 | O=C(Nc1nc2c(Cl)c(Cl)ccc2s1)c1cc2ccccc2oc1=O | 98.6
43 | COc1ccc(-c2ocnc2C(=O)N2CCC(C(N)=O)CC2)cc1OC | 117
44 | COC(=O)c1ccccc1NC(=O)c1cnc2c(-c3ccccc3)c(C)nn2c1C | 134
45 | Cc1nc(NCCC2=CCCCC2)c2onc(-c3ccccc3)c2n1 | 82.4
46 | O=C(NCCCN1CCOCC1)c1cc(-c2ccccc2)nc2n[nH]c(-c3ccc(F)cc3)c12 | 117

Row | Structure (SMILES) | host macrophage viability [%]
47 | CC(C)CNC(=S)N1CCC(n2cnc3cc(F)ccc32)CC1 | 107
48 | COC(=O)c1[nH]c(C)c(C(=O)C2=C(O)C(=O)N(CCN(C)C)C2c2ccncc2)c1C (configuration not stated) | 106
49 | Cc1nonc1CC(=O)NCCn1nc2c(C)cc3ccccc3n2c1=O | 118
50 | O=C(CSc1nc(=O)[nH]c2c1CCC2)c1ccc(F)cc1 | 110
51 | O=c1[nH]c(=O)c2cc(S(=O)(=O)Nc3ccccc3-c3ccccc3)ccc2[nH]1 | 95.2
52 | O=C(NCc1ccccc1)C(c1cccs1)N(C(=O)c1ccccn1)c1ccccc1F (configuration not stated) | 107
53 | Cn1c(=O)c2c(SCC(=O)Nc3ccc(F)cc3)nc(-c3cccs3)nc2n(C)c1=O | 107 ± 8.3
54 | CCOc1ccc(S(=O)(=O)N2CCN(c3cc(Nc4ccc(C)cc4)nc(C)n3)CC2)cc1 | 109
55 | O=C(N/N=C\c1cccnc1)c1n[nH]c2c1CCCC2 | 98.7
56 | Cc1c(NC(=O)CN2C(=O)C(=O)c3ccccc32)c(=O)n(-c2ccccc2)n1C | 119
57 | COc1cc(C(=O)Nc2c[nH]c3ccccc23)c2ccccc2n1 | 104
58 | COc1ccc(-c2csc3ncnc(NCCCO)c23)cc1 | 104
59 | CN1CCOc2ccc(NC(=O)c3ccc(F)cc3)cc2C1=O | 123
60 | CCCCOc1ccc(CNC(=O)C2CCN(c3ccc4nnc(C)n4n3)CC2)cc1 | 116
61 | COc1ccc(C(=O)Nc2nc(CC(=O)NCc3cccnc3)cs2)cc1 | 110
62 | COc1ccc(Cl)cc1NS(=O)(=O)c1cc2c3c(c1)C(C)C(=O)N3CCC2 (configuration not stated) | 110
63 | Cc1cccc2c(C(=O)Nc3cccc(C(=O)N4CCCCC4)c3)cc(O)nc12 | 102
64 | Cc1cnn(Cc2ccccc2)c1NC(=O)c1ncoc1-c1ccc(F)cc1 | 128
65 | Brc1cccc2sc(N3CCOCC3)nc12 | 112 ± 15
66 | CC(=O)Nc1ccc(C(O)CN2CCC3(CC2)CC(O)c2cc(C)c(C)cc2O3)cc1 (configuration not stated) | 109
67 | Cc1ccc2c(c1)/C(=N/NC(=O)CCCCCC(=O)N/N=C1/C(=O)Nc3ccc(C)cc31)C(=O)N2 | 119

Arranged by length of the SMILES (smallest number first): part of the list above
Row | Structure (SMILES) | host macrophage viability [%]
50 | O=C(CSc1nc(=O)[nH]c2c1CCC2)c1ccc(F)cc1 | 110
63 | Cc1cccc2c(C(=O)Nc3cccc(C(=O)N4CCCCC4)c3)cc(O)nc12 | 102
54 | CCOc1ccc(S(=O)(=O)N2CCN(c3cc(Nc4ccc(C)cc4)nc(C)n3)CC2)cc1 | 109
48 | COC(=O)c1[nH]c(C)c(C(=O)C2=C(O)C(=O)N(CCN(C)C)C2c2ccncc2)c1C (configuration not stated) | 106

Source: the supplement of paper PMC12578635
